# Data: the supplement of paper PMC12823440, “Inhibitors supercharge kinase turnover through native proteolytic circuits” (Nature, 2025)
# Sequences of proteins named here, by UniProt entry; tags and fusion partners are left off. A change or cut given only in a name is not applied to a line headed by its entry.
# UniProt P28482, whole entry: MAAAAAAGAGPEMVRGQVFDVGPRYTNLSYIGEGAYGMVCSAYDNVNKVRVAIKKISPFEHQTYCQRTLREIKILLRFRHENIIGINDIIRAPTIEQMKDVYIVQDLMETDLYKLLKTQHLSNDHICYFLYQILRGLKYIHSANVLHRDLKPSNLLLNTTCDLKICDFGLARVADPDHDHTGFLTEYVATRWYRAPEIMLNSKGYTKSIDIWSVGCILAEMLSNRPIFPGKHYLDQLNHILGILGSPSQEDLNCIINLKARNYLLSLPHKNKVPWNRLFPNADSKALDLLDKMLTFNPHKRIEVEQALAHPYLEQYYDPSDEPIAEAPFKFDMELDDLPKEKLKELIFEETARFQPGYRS
# UniProt Q9BUB5: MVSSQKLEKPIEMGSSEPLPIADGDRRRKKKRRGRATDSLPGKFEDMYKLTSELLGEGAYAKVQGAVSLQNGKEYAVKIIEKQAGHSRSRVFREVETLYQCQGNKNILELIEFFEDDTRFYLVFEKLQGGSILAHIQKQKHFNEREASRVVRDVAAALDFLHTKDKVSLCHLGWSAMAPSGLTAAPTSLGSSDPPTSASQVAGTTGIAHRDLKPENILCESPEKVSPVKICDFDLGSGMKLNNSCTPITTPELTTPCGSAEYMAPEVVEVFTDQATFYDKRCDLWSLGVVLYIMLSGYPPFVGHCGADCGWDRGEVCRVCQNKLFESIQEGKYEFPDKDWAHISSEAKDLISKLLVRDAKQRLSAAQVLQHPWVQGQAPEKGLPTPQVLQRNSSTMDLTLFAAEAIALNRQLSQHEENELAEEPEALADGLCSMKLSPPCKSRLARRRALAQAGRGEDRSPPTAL
# UniProt Q16620, whole entry, looked up: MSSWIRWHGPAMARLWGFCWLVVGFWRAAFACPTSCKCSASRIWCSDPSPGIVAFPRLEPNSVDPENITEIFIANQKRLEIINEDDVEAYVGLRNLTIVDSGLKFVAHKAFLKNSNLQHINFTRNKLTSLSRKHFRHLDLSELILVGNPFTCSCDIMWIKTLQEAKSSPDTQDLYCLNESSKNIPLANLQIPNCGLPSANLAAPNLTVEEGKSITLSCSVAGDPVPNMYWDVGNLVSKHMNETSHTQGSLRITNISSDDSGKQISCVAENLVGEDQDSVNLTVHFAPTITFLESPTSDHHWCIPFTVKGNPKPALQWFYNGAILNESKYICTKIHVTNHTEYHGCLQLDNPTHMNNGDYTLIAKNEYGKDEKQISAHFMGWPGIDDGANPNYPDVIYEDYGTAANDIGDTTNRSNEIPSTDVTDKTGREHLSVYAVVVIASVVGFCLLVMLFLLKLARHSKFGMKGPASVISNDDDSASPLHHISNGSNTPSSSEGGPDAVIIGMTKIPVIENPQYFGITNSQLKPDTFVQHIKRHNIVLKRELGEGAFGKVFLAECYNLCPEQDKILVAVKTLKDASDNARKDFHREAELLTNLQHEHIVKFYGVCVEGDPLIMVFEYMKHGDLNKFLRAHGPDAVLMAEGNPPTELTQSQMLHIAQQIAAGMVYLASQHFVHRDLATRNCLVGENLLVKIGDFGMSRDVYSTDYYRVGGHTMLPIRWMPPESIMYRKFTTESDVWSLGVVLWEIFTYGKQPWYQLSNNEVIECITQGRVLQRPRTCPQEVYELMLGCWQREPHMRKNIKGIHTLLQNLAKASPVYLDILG
# UniProt O96013: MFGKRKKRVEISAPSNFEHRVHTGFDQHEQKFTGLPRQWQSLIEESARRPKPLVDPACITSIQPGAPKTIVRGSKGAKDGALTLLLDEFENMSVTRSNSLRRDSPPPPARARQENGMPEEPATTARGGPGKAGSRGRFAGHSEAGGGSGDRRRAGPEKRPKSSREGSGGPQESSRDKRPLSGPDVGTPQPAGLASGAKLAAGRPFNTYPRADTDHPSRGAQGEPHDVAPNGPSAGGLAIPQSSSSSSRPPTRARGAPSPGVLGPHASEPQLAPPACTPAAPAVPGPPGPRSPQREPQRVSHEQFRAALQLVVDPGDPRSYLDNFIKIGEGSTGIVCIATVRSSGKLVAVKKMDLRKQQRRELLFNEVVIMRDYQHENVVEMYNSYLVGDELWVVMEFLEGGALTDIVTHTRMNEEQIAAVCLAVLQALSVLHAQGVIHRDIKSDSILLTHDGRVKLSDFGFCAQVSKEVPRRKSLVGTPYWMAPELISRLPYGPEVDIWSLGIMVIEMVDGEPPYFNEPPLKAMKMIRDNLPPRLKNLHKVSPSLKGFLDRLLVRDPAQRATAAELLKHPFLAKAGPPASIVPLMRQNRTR
# UniProt Q96KB5: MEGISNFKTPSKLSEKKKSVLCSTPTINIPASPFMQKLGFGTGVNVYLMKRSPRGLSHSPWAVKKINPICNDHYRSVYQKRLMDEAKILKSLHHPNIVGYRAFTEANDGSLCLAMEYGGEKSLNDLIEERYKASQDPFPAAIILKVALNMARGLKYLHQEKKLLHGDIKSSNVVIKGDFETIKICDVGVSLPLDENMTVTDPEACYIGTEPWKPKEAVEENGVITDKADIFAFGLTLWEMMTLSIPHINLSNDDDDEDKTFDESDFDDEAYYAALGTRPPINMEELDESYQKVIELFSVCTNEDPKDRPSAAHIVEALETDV
# UniProt Q15118, whole entry, looked up: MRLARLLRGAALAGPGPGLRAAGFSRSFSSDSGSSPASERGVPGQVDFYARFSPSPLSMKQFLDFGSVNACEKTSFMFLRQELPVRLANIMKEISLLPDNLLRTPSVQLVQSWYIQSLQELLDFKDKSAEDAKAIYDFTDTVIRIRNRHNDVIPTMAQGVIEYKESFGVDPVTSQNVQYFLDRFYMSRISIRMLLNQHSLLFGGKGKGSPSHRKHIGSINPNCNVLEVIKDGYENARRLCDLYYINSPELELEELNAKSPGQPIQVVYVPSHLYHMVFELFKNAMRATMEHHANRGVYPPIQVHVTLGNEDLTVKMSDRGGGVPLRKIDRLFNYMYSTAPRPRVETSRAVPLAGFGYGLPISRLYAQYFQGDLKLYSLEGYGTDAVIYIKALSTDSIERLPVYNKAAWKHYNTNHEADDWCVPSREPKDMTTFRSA
# UniProt Q9UBF8: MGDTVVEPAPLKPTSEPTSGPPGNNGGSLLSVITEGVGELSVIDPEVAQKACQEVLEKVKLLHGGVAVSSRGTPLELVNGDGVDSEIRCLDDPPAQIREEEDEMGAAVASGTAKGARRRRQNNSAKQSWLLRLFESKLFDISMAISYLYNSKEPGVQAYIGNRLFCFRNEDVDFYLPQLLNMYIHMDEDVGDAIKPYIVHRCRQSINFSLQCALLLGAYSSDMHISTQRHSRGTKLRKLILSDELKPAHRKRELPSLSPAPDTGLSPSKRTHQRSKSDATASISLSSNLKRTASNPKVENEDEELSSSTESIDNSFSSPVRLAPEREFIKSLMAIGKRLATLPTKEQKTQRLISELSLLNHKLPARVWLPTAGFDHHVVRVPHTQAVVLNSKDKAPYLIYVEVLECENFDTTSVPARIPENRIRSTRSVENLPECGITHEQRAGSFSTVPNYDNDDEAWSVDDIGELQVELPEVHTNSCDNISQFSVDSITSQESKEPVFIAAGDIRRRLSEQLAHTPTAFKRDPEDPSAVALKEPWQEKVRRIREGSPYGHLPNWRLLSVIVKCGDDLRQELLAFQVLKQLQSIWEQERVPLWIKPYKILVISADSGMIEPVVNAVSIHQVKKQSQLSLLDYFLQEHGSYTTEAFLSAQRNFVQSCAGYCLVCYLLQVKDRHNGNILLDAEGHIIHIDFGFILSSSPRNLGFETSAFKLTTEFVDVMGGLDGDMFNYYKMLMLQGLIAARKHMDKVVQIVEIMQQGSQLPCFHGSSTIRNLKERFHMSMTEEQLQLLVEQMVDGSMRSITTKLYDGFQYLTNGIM
# UniProt Q05397, whole entry, looked up: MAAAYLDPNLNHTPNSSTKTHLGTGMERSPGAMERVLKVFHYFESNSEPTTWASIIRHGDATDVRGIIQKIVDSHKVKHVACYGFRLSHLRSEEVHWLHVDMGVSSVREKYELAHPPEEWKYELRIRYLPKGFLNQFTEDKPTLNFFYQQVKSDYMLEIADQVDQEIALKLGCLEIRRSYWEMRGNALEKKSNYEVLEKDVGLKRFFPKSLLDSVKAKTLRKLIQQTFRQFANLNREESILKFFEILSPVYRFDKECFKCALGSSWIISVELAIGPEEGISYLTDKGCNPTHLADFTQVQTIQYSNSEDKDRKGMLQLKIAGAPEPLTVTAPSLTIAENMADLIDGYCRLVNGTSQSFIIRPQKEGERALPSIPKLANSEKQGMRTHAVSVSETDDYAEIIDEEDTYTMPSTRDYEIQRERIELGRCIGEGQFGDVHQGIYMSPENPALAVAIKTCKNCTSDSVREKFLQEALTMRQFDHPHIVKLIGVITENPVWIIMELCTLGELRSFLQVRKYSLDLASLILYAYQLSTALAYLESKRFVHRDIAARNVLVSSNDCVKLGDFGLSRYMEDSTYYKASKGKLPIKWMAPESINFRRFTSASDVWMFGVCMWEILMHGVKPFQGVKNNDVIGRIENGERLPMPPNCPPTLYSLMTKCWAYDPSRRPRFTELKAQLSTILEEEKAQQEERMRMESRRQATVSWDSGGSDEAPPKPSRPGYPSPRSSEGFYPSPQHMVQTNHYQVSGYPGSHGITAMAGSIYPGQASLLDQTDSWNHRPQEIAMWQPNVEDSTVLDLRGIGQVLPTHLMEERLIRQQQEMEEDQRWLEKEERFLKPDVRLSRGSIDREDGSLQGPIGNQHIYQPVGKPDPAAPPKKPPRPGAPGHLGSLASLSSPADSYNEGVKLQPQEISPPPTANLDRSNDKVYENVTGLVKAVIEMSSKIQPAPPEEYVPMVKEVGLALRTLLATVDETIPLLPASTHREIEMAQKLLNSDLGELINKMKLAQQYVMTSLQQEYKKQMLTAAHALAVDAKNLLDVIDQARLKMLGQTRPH
# UniProt Q14289, whole entry, looked up: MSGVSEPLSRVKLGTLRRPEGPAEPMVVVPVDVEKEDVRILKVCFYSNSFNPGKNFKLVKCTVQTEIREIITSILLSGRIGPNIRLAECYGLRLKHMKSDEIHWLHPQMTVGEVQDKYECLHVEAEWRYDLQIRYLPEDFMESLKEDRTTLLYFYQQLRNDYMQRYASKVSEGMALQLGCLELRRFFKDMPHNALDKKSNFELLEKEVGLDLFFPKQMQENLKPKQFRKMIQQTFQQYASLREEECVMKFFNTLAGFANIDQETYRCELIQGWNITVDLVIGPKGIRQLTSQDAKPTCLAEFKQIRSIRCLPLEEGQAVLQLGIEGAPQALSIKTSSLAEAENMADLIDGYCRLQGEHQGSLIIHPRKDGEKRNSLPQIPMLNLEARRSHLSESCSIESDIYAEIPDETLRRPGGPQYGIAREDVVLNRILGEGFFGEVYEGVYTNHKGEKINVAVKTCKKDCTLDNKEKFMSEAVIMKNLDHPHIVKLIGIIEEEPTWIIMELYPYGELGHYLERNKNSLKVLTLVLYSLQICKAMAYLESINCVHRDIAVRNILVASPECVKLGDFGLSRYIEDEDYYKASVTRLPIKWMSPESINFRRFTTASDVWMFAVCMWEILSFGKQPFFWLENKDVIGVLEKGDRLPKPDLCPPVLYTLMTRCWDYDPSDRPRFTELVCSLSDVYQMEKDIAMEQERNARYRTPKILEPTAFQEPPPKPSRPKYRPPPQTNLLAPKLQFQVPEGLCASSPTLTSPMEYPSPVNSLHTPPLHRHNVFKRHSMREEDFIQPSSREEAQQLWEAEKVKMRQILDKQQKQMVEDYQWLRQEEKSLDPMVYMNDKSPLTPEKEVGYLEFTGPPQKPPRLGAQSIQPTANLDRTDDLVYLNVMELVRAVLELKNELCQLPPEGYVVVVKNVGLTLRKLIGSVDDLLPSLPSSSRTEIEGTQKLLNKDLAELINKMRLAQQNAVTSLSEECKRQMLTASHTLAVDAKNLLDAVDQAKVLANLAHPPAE
# Structures can show the parent of a compound that is named as a salt. The list shows a part of the results. The calls rarely recur for the same compound in another form.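 Kinases, fused to nanoluciferase, were expressed in K562 cells; luminescence was measured every 4 h from 2 to 18 h as percent of control (DMSO = 100%, positive control = 0%). A time point is decreased if signal falls significantly (2 sigma). Hits were called by the authors by a rule that is not shown; the count of time points alone does not decide it.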
# Legend:
# Assay in all cases: kinase-Nluc reporter destabilization hit call (1 = scored as downregulated) (binary); higher = compound decreases kinase abundance
# Details in all cases: K562, 2-18 h
# MAPK1 = MAPK1 (UniProt P28482)
# MAPK4 = MAPK4 (UniProt P31152)
# MAPKAPK2 = MAPKAPK2 (UniProt P49137)
# MKNK1 = MKNK1 (UniProt Q9BUB5)
# NTRK2 = NTRK2 (UniProt Q16620)
# NTRK3 = NTRK3 (UniProt Q16288)
# PAK4 = PAK4 (UniProt O96013)
# PBK = PBK (UniProt Q96KB5)
# PDGFRB = PDGFRB (UniProt P09619)
# PDK1 = PDK1 (UniProt Q15118)
# PDPK1 = PDPK1 (UniProt O15530)
# PIK4CA = PIK4CA (UniProt P42356)
# PIK4CB = PIK4CB (UniProt Q9UBF8)
# PLK1 = PLK1 (UniProt P53350)
# PRKAA1 = PRKAA1 (UniProt Q13131)
# PRKCA = PRKCA (UniProt P17252)
# PTK2 = PTK2 (UniProt Q05397)
# PTK2B = PTK2B (UniProt Q14289)
# RAF1 = RAF1 (UniProt P04049)
# [1] = biological target: RAF1_S257L (clone: RAF1_mut) (UniProt P04049)
Structure (SMILES),kinase-Nluc reporter destabilization hit call (MAPK1; 2.5 µM),kinase-Nluc reporter destabilization hit call (MAPK4; 2.5 µM),kinase-Nluc reporter destabilization hit call (MAPKAPK2; 2.5 µM),kinase-Nluc reporter destabilization hit call (MKNK1; 2.5 µM),kinase-Nluc reporter destabilization hit call (NTRK2; 2.5 µM),kinase-Nluc reporter destabilization hit call (NTRK3; 2.5 µM),kinase-Nluc reporter destabilization hit call (PAK4; 2.5 µM),kinase-Nluc reporter destabilization hit call (PBK; 2.5 µM),kinase-Nluc reporter destabilization hit call (PDGFRB; 2.5 µM),kinase-Nluc reporter destabilization hit call (PDK1; 2.5 µM),kinase-Nluc reporter destabilization hit call (PDPK1; 2.5 µM),kinase-Nluc reporter destabilization hit call (PIK4CA; 2.5 µM),kinase-Nluc reporter destabilization hit call (PIK4CB; 2.5 µM),kinase-Nluc reporter destabilization hit call (PLK1; 2.5 µM),kinase-Nluc reporter destabilization hit call (PRKAA1; 2.5 µM),kinase-Nluc reporter destabilization hit call (PRKCA; 2.5 µM),kinase-Nluc reporter destabilization hit call (PTK2; 2.5 µM),kinase-Nluc reporter destabilization hit call (PTK2B; 2.5 µM),kinase-Nluc reporter destabilization hit call (RAF1; 2.5 µM),kinase-Nluc reporter destabilization hit call ([1]; 2.5 µM),kinase-Nluc reporter destabilization hit call (MAPK1; 10 µM),kinase-Nluc reporter destabilization hit call (MAPK4; 10 µM),kinase-Nluc reporter destabilization hit call (MAPKAPK2; 10 µM),kinase-Nluc reporter destabilization hit call (MKNK1; 10 µM),kinase-Nluc reporter destabilization hit call (NTRK2; 10 µM),kinase-Nluc reporter destabilization hit call (NTRK3; 10 µM),kinase-Nluc reporter destabilization hit call (PAK4; 10 µM),kinase-Nluc reporter destabilization hit call (PBK; 10 µM),kinase-Nluc reporter destabilization hit call (PDGFRB; 10 µM),kinase-Nluc reporter destabilization hit call (PDK1; 10 µM),kinase-Nluc reporter destabilization hit call (PDPK1; 10 µM),kinase-Nluc reporter destabilization hit call (PIK4CA; 10 µM),kinase-Nluc reporter destabilization hit call (PIK4CB; 10 µM),kinase-Nluc reporter destabilization hit call (PLK1; 10 µM),kinase-Nluc reporter destabilization hit call (PRKAA1; 10 µM),kinase-Nluc reporter destabilization hit call (PRKCA; 10 µM),kinase-Nluc reporter destabilization hit call (PTK2; 10 µM),kinase-Nluc reporter destabilization hit call (PTK2B; 10 µM),kinase-Nluc reporter destabilization hit call (RAF1; 10 µM),kinase-Nluc reporter destabilization hit call ([1]; 10 µM)
C=CC(=O)Nc1cc(Nc2nccc(-c3cn(C4CC4)c4ccccc34)n2)c(OC)cc1N(C)CCN(C)C [Almonertinib (hydrochloride)],inactive: 0,inactive: 0,inactive: 0,inactive: 0,inactive: 0,inactive: 0,inactive: 0,inactive: 0,inactive: 0,inactive: 0,inactive: 0,inactive: 0,inactive: 0,inactive: 0,inactive: 0,inactive: 0,inactive: 0,inactive: 0,inactive: 0,inactive: 0,–,–,–,–,–,–,–,–,–,–,–,–,–,–,–,–,–,–,–,–
C[C@H](CCC(=O)NCCS(=O)(=O)O)[C@H]1CC[C@H]2[C@@H]3[C@@H](O)C[C@@H]4C[C@H](O)CC[C@]4(C)[C@H]3CC[C@]12C [Tauroursodeoxycholate (sodium)],–,–,–,–,–,–,–,–,–,–,–,–,–,–,–,–,–,–,–,–,inactive: 0,inactive: 0,inactive: 0,inactive: 0,inactive: 0,inactive: 0,inactive: 0,inactive: 0,inactive: 0,inactive: 0,inactive: 0,inactive: 0,inactive: 0,inactive: 0,inactive: 0,inactive: 0,inactive: 0,inactive: 0,inactive: 0,inactive: 0
CC(=O)Nc1cccc(-n2c(=O)n(C3CC3)c(=O)c3c(Nc4ccc(I)cc4F)n(C)c(=O)c(C)c32)c1 [Trametinib],–,–,–,–,–,–,–,–,–,–,–,–,–,–,–,–,–,–,–,–,inactive: 0,inactive: 0,inactive: 0,inactive: 0,inactive: 0,inactive: 0,inactive: 0,inactive: 0,inactive: 0,inactive: 0,inactive: 0,inactive: 0,inactive: 0,inactive: 0,inactive: 0,inactive: 0,inactive: 0,inactive: 0,inactive: 0,inactive: 0
Cc1nc2ccc(-n3c(-c4nonc4N)nc4cnccc43)cc2[nH]1,–,–,–,–,–,–,–,–,–,–,–,–,–,–,–,–,–,–,–,–,inactive: 0,inactive: 0,inactive: 0,inactive: 0,inactive: 0,inactive: 0,inactive: 0,inactive: 0,inactive: 0,inactive: 0,inactive: 0,inactive: 0,inactive: 0,inactive: 0,inactive: 0,inactive: 0,inactive: 0,inactive: 0,inactive: 0,inactive: 0
Cc1cccc(/C=N/Nc2cc(N3CCOCC3)nc(OCCc3ccccn3)n2)c1 [Apilimod],inactive: 0,inactive: 0,inactive: 0,inactive: 0,inactive: 0,inactive: 0,inactive: 0,inactive: 0,inactive: 0,inactive: 0,inactive: 0,inactive: 0,inactive: 0,inactive: 0,inactive: 0,inactive: 0,inactive: 0,inactive: 0,inactive: 0,inactive: 0,–,–,–,–,–,–,–,–,–,–,–,–,–,–,–,–,–,–,–,–
Nc1ncnc2c1c(-c1ccc(Oc3ccccc3)cc1)nn2[C@@H]1CCCNC1,inactive: 0,inactive: 0,inactive: 0,inactive: 0,inactive: 0,inactive: 0,inactive: 0,inactive: 0,inactive: 0,inactive: 0,inactive: 0,inactive: 0,inactive: 0,inactive: 0,inactive: 0,inactive: 0,inactive: 0,inactive: 0,inactive: 0,inactive: 0,–,–,–,–,–,–,–,–,–,–,–,–,–,–,–,–,–,–,–,–
CCS(=O)(=O)N1CC(CC#N)(n2cc(-c3ncnc4[nH]ccc34)cn2)C1 [Baricitinib (phosphate)],–,–,–,–,–,–,–,–,–,–,–,–,–,–,–,–,–,–,–,–,inactive: 0,inactive: 0,inactive: 0,inactive: 0,inactive: 0,inactive: 0,inactive: 0,inactive: 0,inactive: 0,inactive: 0,inactive: 0,inactive: 0,inactive: 0,inactive: 0,inactive: 0,inactive: 0,inactive: 0,inactive: 0,inactive: 0,inactive: 0
CNC(=O)c1ccc(Nc2ncc(C(F)(F)F)c(NCc3nccnc3N(C)S(C)(=O)=O)n2)cc1 [Defactinib (hydrochloride)],–,–,–,–,–,–,–,–,–,–,–,–,–,–,–,–,–,–,–,–,inactive: 0,inactive: 0,inactive: 0,inactive: 0,inactive: 0,inactive: 0,inactive: 0,inactive: 0,inactive: 0,inactive: 0,inactive: 0,inactive: 0,inactive: 0,inactive: 0,inactive: 0,inactive: 0,inactive: 0,inactive: 0,inactive: 0,inactive: 0
C=CC(=O)Nc1cc(Nc2nccc(-c3cn(C)c4ccccc34)n2)c(OC)cc1N(C)CCN(C)C [Osimertinib mesylate],inactive: 0,inactive: 0,inactive: 0,inactive: 0,inactive: 0,inactive: 0,inactive: 0,inactive: 0,inactive: 0,inactive: 0,inactive: 0,inactive: 0,inactive: 0,inactive: 0,inactive: 0,inactive: 0,inactive: 0,inactive: 0,inactive: 0,inactive: 0,–,–,–,–,–,–,–,–,–,–,–,–,–,–,–,–,–,–,–,–
C#Cc1cccc(Nc2ncnc3cc(OCCOC)c(OCCO)cc23)c1 [Desmethyl Erlotinib (hydrochloride)],–,–,–,–,–,–,–,–,–,–,–,–,–,–,–,–,–,–,–,–,inactive: 0,inactive: 0,inactive: 0,inactive: 0,inactive: 0,inactive: 0,inactive: 0,inactive: 0,inactive: 0,inactive: 0,inactive: 0,inactive: 0,inactive: 0,inactive: 0,active: 1,inactive: 0,inactive: 0,inactive: 0,inactive: 0,inactive: 0
Nc1cncc(-c2cn3ccnc3c(Nc3ccc(N4CCN(C5COC5)CC4)cc3)n2)n1 [Lanraplenib],–,–,–,–,–,–,–,–,–,–,–,–,–,–,–,–,–,–,–,–,inactive: 0,inactive: 0,inactive: 0,inactive: 0,inactive: 0,inactive: 0,inactive: 0,inactive: 0,inactive: 0,inactive: 0,inactive: 0,inactive: 0,inactive: 0,inactive: 0,inactive: 0,inactive: 0,inactive: 0,inactive: 0,inactive: 0,inactive: 0
COCCOc1cc(F)c2c(Nc3ccc(NC(=O)Cn4cc(C(C)C)nn4)cc3)ncnc2c1 [AZD3229 Tosylate],–,–,–,–,–,–,–,–,–,–,–,–,–,–,–,–,–,–,–,–,inactive: 0,inactive: 0,inactive: 0,inactive: 0,inactive: 0,inactive: 0,inactive: 0,inactive: 0,inactive: 0,inactive: 0,inactive: 0,inactive: 0,inactive: 0,inactive: 0,inactive: 0,inactive: 0,inactive: 0,inactive: 0,inactive: 0,inactive: 0
CNc1ncc2cc(-c3ccc(-c4cccc(C)n4)cc3Cl)c(=O)n(C[C@H]3OC[C@H](N)CO3)c2n1,–,–,–,–,–,–,–,–,–,–,–,–,–,–,–,–,–,–,–,–,inactive: 0,inactive: 0,inactive: 0,inactive: 0,inactive: 0,inactive: 0,inactive: 0,inactive: 0,inactive: 0,inactive: 0,inactive: 0,inactive: 0,inactive: 0,inactive: 0,inactive: 0,inactive: 0,inactive: 0,inactive: 0,inactive: 0,inactive: 0
COc1ncc(F)cc1CNc1ccc(Cc2c[nH]c3ncc(C)cc23)c(F)n1 [PLX5622 (hemifumarate)],–,–,–,–,–,–,–,–,–,–,–,–,–,–,–,–,–,–,–,–,inactive: 0,inactive: 0,inactive: 0,inactive: 0,inactive: 0,inactive: 0,inactive: 0,inactive: 0,inactive: 0,inactive: 0,inactive: 0,inactive: 0,inactive: 0,inactive: 0,inactive: 0,inactive: 0,inactive: 0,inactive: 0,inactive: 0,inactive: 0
COc1cc2c(cc1OC)-c1c(C)c3ccc(OC)c(OC)c3c[n+]1CC2 [Dehydrocorydaline (chloride)],–,–,–,–,–,–,–,–,–,–,–,–,–,–,–,–,–,–,–,–,inactive: 0,inactive: 0,inactive: 0,inactive: 0,inactive: 0,inactive: 0,inactive: 0,inactive: 0,inactive: 0,inactive: 0,inactive: 0,inactive: 0,inactive: 0,inactive: 0,inactive: 0,inactive: 0,inactive: 0,inactive: 0,inactive: 0,inactive: 0
Cc1ccc(NC(=O)c2ccc(CN3CCN(C)CC3)cc2)cc1Nc1nc(-c2cccnc2)cs1 [Masitinib],inactive: 0,inactive: 0,inactive: 0,inactive: 0,inactive: 0,inactive: 0,inactive: 0,inactive: 0,inactive: 0,inactive: 0,inactive: 0,inactive: 0,inactive: 0,inactive: 0,inactive: 0,inactive: 0,inactive: 0,inactive: 0,inactive: 0,inactive: 0,–,–,–,–,–,–,–,–,–,–,–,–,–,–,–,–,–,–,–,–

# Part of the list above, reduced to kinase-Nluc reporter destabilization hit call (PIK4CA; 10 µM) and kinase-Nluc reporter destabilization hit call (MKNK1; 2.5 µM):
Structure (SMILES) | kinase-Nluc reporter destabilization hit call (PIK4CA; 10 µM) | kinase-Nluc reporter destabilization hit call (MKNK1; 2.5 µM)
Cc1nc2ccc(-n3c(-c4nonc4N)nc4cnccc43)cc2[nH]1 | inactive: 0 | –
CCS(=O)(=O)N1CC(CC#N)(n2cc(-c3ncnc4[nH]ccc34)cn2)C1 [Baricitinib (phosphate)] | inactive: 0 | –
